Assay: general procedure: peptide synthesis; pentafluorophenyl ethers of N-protected amino acids

Substance | final HPLC purity (whole synthesis, 220 nm) [%] | cyclisation yield (cyclisation step, molar yield) [%]
H-VKGFY-OH | 98 | 
cyclo(VKGFY) |  | 15
